The list shows a part of the results. Single values are uncertain, as repeats are few or missing.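 Imaging used 1,536-well plates; nuclei positive for cleaved PARP by antibody were divided by total DNA-stained nuclei to yield the apoptosis fraction. Doses for screening kept most cells viable, and cell lines differ markedly in resting and induced cleaved-PARP levels.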
Experiments:
Test in all cases: cleaved PARP positive nuclei fraction relative to DMSO control; melanoma cells; higher = more apoptosis
Details in all cases: library dose: low library concentration; 72 h
[1] = tested on: WM115
[2] = tested on: WM1716
[3] = tested on: WM1745
[4] = tested on: WM3526
[5] = tested on: WM3619
[6] = tested on: WM451Lu

Question: For N#Cc1c(O)c2c(-c3ccc(-c4ccccc4O)cc3)csc2[nH]c1=O + O=c1cc(-c2cccc3c2Sc2ccccc2S3)oc(N2CCOCC2)c1 [KU55933] (first compound 2 µM, partner dose 1 µM), which “cleaved PARP positive nuclei fraction” value [1] is on record?
Answer: 64.1%

Question: What about the “cleaved PARP positive nuclei fraction” value [2] of the same compound?
Answer: 192%

Question: And the “cleaved PARP positive nuclei fraction” value [3]?
Answer: 106%

Question: And the “cleaved PARP positive nuclei fraction” value [4]?
Answer: 66.6%

Question: And the “cleaved PARP positive nuclei fraction” value [5]?
Answer: 80.1%

Question: And the “cleaved PARP positive nuclei fraction” value [6]?
Answer: 130%

Question: Which results are given for CCc1ccc(CCOc2ccc(CC3SC(=O)NC3=O)cc2)nc1 (centres undefined) [pioglitazone] + Cc1cc([N+](=O)[O-])ccc1NS(=O)(=O)c1cc(Cl)ccc1Cl [FH535] (first compound 2 µM, partner dose 1 µM)?
Answer: cleaved PARP positive nuclei fraction [1]: 109%; cleaved PARP positive nuclei fraction [2]: 117%; cleaved PARP positive nuclei fraction [3]: 99.5%; cleaved PARP positive nuclei fraction [4]: 69.7%; cleaved PARP positive nuclei fraction [5]: 85.5%; cleaved PARP positive nuclei fraction [6]: 135%

Question: For COc1cc2c(Oc3ccc4[nH]c(C)cc4c3F)ncnc2cc1OCCCN1CCCC1 [cediranib] + COc1ccc(COc2ccc(Cc3cnc(N)nc3N)cc2OC)cc1 [GW2580] (first compound 0.4 µM, partner dose 1 µM), which “cleaved PARP positive nuclei fraction” value [1] is on record?
Answer: 104%

Question: And the “cleaved PARP positive nuclei fraction” value [2]?
Answer: 104%

Question: And the “cleaved PARP positive nuclei fraction” value [3]?
Answer: 104%

Question: And the “cleaved PARP positive nuclei fraction” value [4]?
Answer: 35.7%

Question: And the “cleaved PARP positive nuclei fraction” value [5]?
Answer: 74.6%

Question: And the “cleaved PARP positive nuclei fraction” value [6]?
Answer: 70.5%

Question: Which results are given for COC(=O)c1sccc1S(=O)(=O)Nc1ccc(Nc2ccccc2)cc1OC + Oc1nc(-c2ccc(C(F)(F)F)cc2)nc2c1CSCC2 [XAV939] (first compound 1 µM, partner dose 2 µM)?
Answer: cleaved PARP positive nuclei fraction [1]: 30.2%; cleaved PARP positive nuclei fraction [2]: 62.8%; cleaved PARP positive nuclei fraction [3]: 123%; cleaved PARP positive nuclei fraction [4]: 60.2%; cleaved PARP positive nuclei fraction [5]: 76.7%; cleaved PARP positive nuclei fraction [6]: 176%

Question: For O=C(O)c1ccc(-c2c[nH]c3ncc(-c4ccccc4)cc23)cc1C1CCCC1 + COc1ccc2c(c1)CCC1C2CCC2(C)C(NCCCCCCN3C(=O)C=CC3=O)CCC12 [U73122] (first compound 0.16 µM, partner dose 0.4 µM), which “cleaved PARP positive nuclei fraction” value [1] is on record?
Answer: 138%

Question: And the “cleaved PARP positive nuclei fraction” value [2]?
Answer: 72.3%

Question: What about the “cleaved PARP positive nuclei fraction” value [3] of the same compound?
Answer: 112%

Question: And the “cleaved PARP positive nuclei fraction” value [4]?
Answer: 137%

Question: And the “cleaved PARP positive nuclei fraction” value [5]?
Answer: 85.9%

Question: What about the “cleaved PARP positive nuclei fraction” value [6] of the same compound?
Answer: 66.5%

Question: Which results are given for O=C(Nc1ccccc1)c1cc([N+](=O)[O-])ccc1Cl + N#Cc1c(O)c2c(-c3ccc(-c4ccccc4O)cc3)csc2[nH]c1=O [A769662] (first compound 2 µM, partner dose 2 µM)?
Answer: cleaved PARP positive nuclei fraction [1]: 289%; cleaved PARP positive nuclei fraction [2]: 29.9%; cleaved PARP positive nuclei fraction [3]: 91.3%; cleaved PARP positive nuclei fraction [4]: 210%; cleaved PARP positive nuclei fraction [5]: 97.8%; cleaved PARP positive nuclei fraction [6]: 60%

Question: For NCC(=O)Nc1ccc(-n2nc(C(F)(F)F)cc2-c2ccc3c(ccc4ccccc43)c2)cc1 + COc1cc(N2CCC(N3CCN(C)CC3)CC2)ccc1Nc1ncc(Cl)c(Nc2ccccc2S(=O)(=O)C(C)C)n1 [NVP-TAE684] (first compound 1 µM, partner dose 0.08 µM), which “cleaved PARP positive nuclei fraction” value [1] is on record?
Answer: 222%

Question: What about the “cleaved PARP positive nuclei fraction” value [2] of the same compound?
Answer: 17.7%

Question: What about the “cleaved PARP positive nuclei fraction” value [3] of the same compound?
Answer: 121%

Question: And the “cleaved PARP positive nuclei fraction” value [4]?
Answer: 123%

Question: And the “cleaved PARP positive nuclei fraction” value [5]?
Answer: 81.3%

Question: And the “cleaved PARP positive nuclei fraction” value [6]?
Answer: 156%

Question: Which results are given for O=C(O)c1ccc(-c2c[nH]c3ncc(-c4ccccc4)cc23)cc1C1CCCC1 + O=C1NC(=O)/C(=C/c2ccc(-c3ccc(F)cc3O)o2)S1 [AS252424] (first compound 0.16 µM, partner dose 1 µM)?
Answer: cleaved PARP positive nuclei fraction [1]: 53.9%; cleaved PARP positive nuclei fraction [2]: 172%; cleaved PARP positive nuclei fraction [3]: 113%; cleaved PARP positive nuclei fraction [4]: 94.2%; cleaved PARP positive nuclei fraction [5]: 82.1%; cleaved PARP positive nuclei fraction [6]: 78.4%

Question: What does the source list for COc1cc(N2CCC(N3CCN(C)CC3)CC2)ccc1Nc1ncc(Cl)c(Nc2ccccc2S(=O)(=O)C(C)C)n1 + CCCCCCCCCCCC1=C(O)C(=O)C=C(O)C1=O [Embelin] (first compound 0.08 µM, partner dose 1.2 µM)?
Answer: cleaved PARP positive nuclei fraction [1]: 128%; cleaved PARP positive nuclei fraction [2]: 44.3%; cleaved PARP positive nuclei fraction [3]: 116%; cleaved PARP positive nuclei fraction [4]: 67.3%; cleaved PARP positive nuclei fraction [5]: 83.1%; cleaved PARP positive nuclei fraction [6]: 25.3%
